Drawing on patent publication US20160311870A1 (SWEDISH ORPHAN BIOVITRUM AB PUBL, published 2016), this text covers binding for three molecules.

Chains of the proteins cited; added tags and fusions are not shown. Lines headed by an entry give the natural chain unless they say otherwise; changes in a name come on top.
UniProt P55899: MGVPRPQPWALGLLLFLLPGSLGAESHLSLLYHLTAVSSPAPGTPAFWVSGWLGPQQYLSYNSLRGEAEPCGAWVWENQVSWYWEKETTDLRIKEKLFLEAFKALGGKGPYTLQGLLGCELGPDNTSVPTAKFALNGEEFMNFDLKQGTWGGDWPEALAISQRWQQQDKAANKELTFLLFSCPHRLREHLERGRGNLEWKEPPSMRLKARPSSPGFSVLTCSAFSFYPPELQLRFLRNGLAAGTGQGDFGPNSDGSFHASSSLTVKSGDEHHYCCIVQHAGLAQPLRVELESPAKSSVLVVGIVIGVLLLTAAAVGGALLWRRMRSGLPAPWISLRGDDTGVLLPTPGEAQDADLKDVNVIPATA

What all share (experiment): method not given
In assay [1] the target is human epidermal growth factor receptor 2 (HER2) (human) (UniProt P04626).
The target of assay [2] is platelet-derived growth factor receptor beta (PDGF-Rβ) (Homo sapiens (Human)) (UniProt P09619).
Assay [3] has as its target neonatal Fc receptor (FcRn) (Homo sapiens (Human)) (UniProt P55899).

These are yes or no findings as the source states them, for the method shown. Some binding calls cover weakened binding; strength is not graded here.

B1: Z17342 (designed binder)
chain: MGSSHHHHHHLQAEAKYAKEMRNAYWEIALLPNLTNQQKRAFIRKLYRQPEQSSELLSEAKKLSESQAPK
B1: in assay [1], the binding result is given as “binds”.

B2: Z17344 (designed binder)
chain: MGSSHHHHHHLQAEAKYAKELIEAAAEIDALPNLTRRQWNAFIKKLVRQPEQSSELLSEAKKLSESQAPK
In the case of B2, in assay [2], the binding entry was “binds”.

B3: Z17348 (designed binder)
chain: MGSSHHHHHHLQAEAKYAKEQDAAAHEIRWLPNLTFDQRVAFIHKLARQPEQSSELLSEAKKLSESQAPK
Consider B3, for which the binding result in assay [3] was “binds”.
